The values that follow come from patent publication US20080227133.

Numbering of substitutions follows the chain as printed. For some assays here: Weaker means in comparison with the reference protein, sequence or condition of that experiment. Protein sequences can lack the tags named with them.

Experiment in all cases: enzyme reaction in vitro
For one series, the target named is T1, KpnI D148A (UniProt P25237).
T1 sequence: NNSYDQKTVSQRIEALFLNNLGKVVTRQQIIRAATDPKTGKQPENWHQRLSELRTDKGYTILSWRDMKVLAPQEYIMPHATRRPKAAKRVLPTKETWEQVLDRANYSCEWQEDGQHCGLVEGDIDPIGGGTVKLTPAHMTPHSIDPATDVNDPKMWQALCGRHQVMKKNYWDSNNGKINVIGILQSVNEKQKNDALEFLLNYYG
To be noted: similar to D148G, traces of cleavage; Mg2+; purified recombinant protein; only the site is given.

A further series has as its target T2, KpnI wild-type (UniProt P25237).
T2 sequence: T1 sequence with A137D
The following applies: complete linearization at 1 nM enzyme; 5 mM MgCl2, 37 C, 1 h; purified recombinant protein; only the site is given.

A further series concerns the target T3, KpnI D148G (UniProt P25237).
T3 sequence: T1 sequence with A137G
The following applies: only traces of cleavage, no complete linearization at 2 uM; near-complete after 12 h; Mg2+; purified recombinant protein; only the site is given.

For a further series, the target named is T4, KpnI Q175E (UniProt P25237).
T4 sequence: T1 sequence with A137D, Q164E
The following applies: only traces of cleavage in large excess, no complete linearization at 2 uM; Mg2+; purified recombinant protein; only the site is given.

The target of another series is T5, KpnI D163I (UniProt P25237).
T5 sequence: T1 sequence with A137D, D152I
To be noted: NEB1 buffer, 37 C; more single-band product, reduced star activity; protein in a lysate after overexpression; only the site is given.

The target in another series is T6, KpnI K165A (UniProt P25237).
T6 sequence: T1 sequence with A137D, K154A
To be noted: NEB1 buffer, 37 C; more single-band product, reduced star activity; protein in a lysate after overexpression; only the site is given.

The next series addresses T7, KpnI D163I/K165A (UniProt P25237).
T7 sequence: T1 sequence with A137D, D152I, K154A
To be noted: NEB1 buffer, 37 C; same specific activity as wild type, star activity no more than 1/64 of wild type; protein in a lysate after overexpression; only the site is given.

Series [1] addresses T8, KpnI wild-type (cell extract) (UniProt P25237).
T8 sequence: T1 sequence with A137D
To be noted: cell extract, NEB1 buffer, 37 C; multiple bands (star activity) at undiluted extract; protein in a lysate after overexpression; only the site is given.

As for “GGTACC (double strand) [pUC18 plasmid, KpnI canonical site]”, the “activity on this sequence” value with KpnI D148A was “less active”; with KpnI wild-type, “active”; in the series with KpnI D148G, “less active”; with KpnI Q175E, “less active”.

Consider “GGTACC (double strand) [pUC19 plasmid, one KpnI site]”, for which the “activity on this sequence” value (in the series with KpnI D163I; in the series with KpnI K165A; in the series with KpnI D163I/K165A; in series [1]) was “active” each time.
